PubChem BioAssay AID1259308 | NCATS – 2017

Purpose: 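Genes whose loss raises luciferase production in HEK293 cells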 (primary screen)
System: human HEK293 embryonic kidney cells stably expressing firefly luciferase (HEK-CMV-Luc2-Hygro)
Reagents: single siRNA against human genes, 0.8 pmol siRNA per well
Timing: 72 h
Read-out: 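Reporter luminescence and viable-cell signal on separate replicate plates, given as percent of non-targeting control and median/MAD z-scores, plus per-cell luciferase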
Reading the numbers: total luciferase, z-score and total luciferase, % of control: higher = more reporter protein produced
Call rule: 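An siRNA counts as active if its total luciferase robust z-score exceeds 3; genes with two or more such siRNAs out of three were retested with fresh siRNAs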
Calls: active = raised luciferase; inactive = no rise
The deposit covers about 59,000 reagents; below is a random part of them. About 1,510 of them (2.6%) count as active. 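Calls use total luciferase alone and ignore viability, so some active siRNAs may act by altering cell number.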 Further read-outs or replicates are left out here.

SMIM8 (small integral membrane protein 8) [SID160745712] → total luciferase, z-score = -1.07; total luciferase, % of control = 60.7; Call = inactive
SMIM8 (small integral membrane protein 8) [SID160745713] → total luciferase, z-score = -1.95; total luciferase, % of control = 43.1; Call = inactive
SMIM8 (small integral membrane protein 8) [SID160745714] → total luciferase, z-score = 0.59; total luciferase, % of control = 93.6; Call = inactive
DECR1 (2,4-dienoyl-CoA reductase 1) [SID160730691] → total luciferase, z-score = -0.399; total luciferase, % of control = 74; Call = inactive
DECR1 (2,4-dienoyl-CoA reductase 1) [SID160753623] → total luciferase, z-score = 0.0347; total luciferase, % of control = 82.6; Call = inactive
DECR1 (2,4-dienoyl-CoA reductase 1) [SID160753634] → total luciferase, z-score = 0.2; total luciferase, % of control = 85.9; Call = inactive
CABIN1 (calcineurin binding protein 1) [SID160736467] → total luciferase, z-score = -0.322; total luciferase, % of control = 75.5; Call = inactive
CABIN1 (calcineurin binding protein 1) [SID160736468] → total luciferase, z-score = 0.937; total luciferase, % of control = 101; Call = inactive
CABIN1 (calcineurin binding protein 1) [SID160736469] → total luciferase, z-score = -0.744; total luciferase, % of control = 67.1; Call = inactive
ZIC5 (Zic family zinc finger 5) [SID160753263] → total luciferase, z-score = -0.421; total luciferase, % of control = 73.5; Call = inactive
ZIC5 (Zic family zinc finger 5) [SID160753265] → total luciferase, z-score = -0.979; total luciferase, % of control = 62.4; Call = inactive
ZIC5 (Zic family zinc finger 5) [SID160753266] → total luciferase, z-score = 1.19; total luciferase, % of control = 106; Call = inactive
RIMS4 (regulating synaptic membrane exocytosis 4) [SID160757866] → total luciferase, z-score = 0.824; total luciferase, % of control = 98.3; Call = inactive
RIMS4 (regulating synaptic membrane exocytosis 4) [SID160757867] → total luciferase, z-score = 1; total luciferase, % of control = 102; Call = inactive
RIMS4 (regulating synaptic membrane exocytosis 4) [SID160757868] → total luciferase, z-score = 1.45; total luciferase, % of control = 111; Call = inactive
ACOT9 (acyl-CoA thioesterase 9) [SID160736648] → total luciferase, z-score = 0.154; total luciferase, % of control = 85; Call = inactive
ACOT9 (acyl-CoA thioesterase 9) [SID160736649] → total luciferase, z-score = -0.039; total luciferase, % of control = 81.1; Call = inactive
ACOT9 (acyl-CoA thioesterase 9) [SID160736650] → total luciferase, z-score = 0.585; total luciferase, % of control = 93.5; Call = inactive

Continued, starting with the last 2 of the part before.
ACOT9 (acyl-CoA thioesterase 9) [SID160736649] → total luciferase, z-score = -0.039; total luciferase, % of control = 81.1; Call = inactive
ACOT9 (acyl-CoA thioesterase 9) [SID160736650] → total luciferase, z-score = 0.585; total luciferase, % of control = 93.5; Call = inactive
RIT1 (Ras like without CAAX 1) [SID160715914] → total luciferase, z-score = -1.14; total luciferase, % of control = 59.2; Call = inactive
RIT1 (Ras like without CAAX 1) [SID160715915] → total luciferase, z-score = -1.79; total luciferase, % of control = 46.2; Call = inactive
RIT1 (Ras like without CAAX 1) [SID160715916] → total luciferase, z-score = 1.91; total luciferase, % of control = 120; Call = inactive
SSR1 (signal sequence receptor subunit 1) [SID160717380] → total luciferase, z-score = 0.961; total luciferase, % of control = 101; Call = inactive
SSR1 (signal sequence receptor subunit 1) [SID160717381] → total luciferase, z-score = -0.589; total luciferase, % of control = 70.2; Call = inactive
SSR1 (signal sequence receptor subunit 1) [SID160717382] → total luciferase, z-score = -1.06; total luciferase, % of control = 60.8; Call = inactive
EXOSC9 (exosome component 9) [SID160714548] → total luciferase, z-score = -1.37; total luciferase, % of control = 54.7; Call = inactive
EXOSC9 (exosome component 9) [SID160714549] → total luciferase, z-score = -2.12; total luciferase, % of control = 39.7; Call = inactive
EXOSC9 (exosome component 9) [SID160714550] → total luciferase, z-score = 1.5; total luciferase, % of control = 112; Call = inactive
CDH15 (cadherin 15) [SID160730408] → total luciferase, z-score = 0.108; total luciferase, % of control = 84; Call = inactive
CDH15 (cadherin 15) [SID160740746] → total luciferase, z-score = -0.135; total luciferase, % of control = 79.2; Call = inactive
CDH15 (cadherin 15) [SID160740757] → total luciferase, z-score = -0.902; total luciferase, % of control = 63.9; Call = inactive
SPTY2D1 (SPT2 chromatin protein domain containing 1) [SID160758091] → total luciferase, z-score = 0.0277; total luciferase, % of control = 82.4; Call = inactive
SPTY2D1 (SPT2 chromatin protein domain containing 1) [SID160758092] → total luciferase, z-score = -0.106; total luciferase, % of control = 79.8; Call = inactive
SPTY2D1 (SPT2 chromatin protein domain containing 1) [SID160758093] → total luciferase, z-score = 0.402; total luciferase, % of control = 89.9; Call = inactive
